In US20240201167A1 (ALBERT EINSTEIN COLLEGE OF MEDICINE, published 2024):
Residue numbers refer to the chain shown, from its start. Numbers in names are those of the source. Results are given in words; binding and its absence hold for the method and conditions named. Some entries that bind do so weakly or less than the wild type.

Assays:
[1] = molecular target: human p75 neurotrophin receptor, full length, expressed on HEK 293 cells (Homo sapiens) (UniProt P08138); assay: Fc fusion titrated on transfected cells, flow cytometry
mouse p75NTR [2] = molecular target: T1, mouse p75NTR (mouse, UniProt Q9Z0W1 32-427); assay: cell-cell binding, flow cytometry
T1 construct: whole, on cells; also called mouse p75NTR-GFP; murine p75
T1 sequence (looked up): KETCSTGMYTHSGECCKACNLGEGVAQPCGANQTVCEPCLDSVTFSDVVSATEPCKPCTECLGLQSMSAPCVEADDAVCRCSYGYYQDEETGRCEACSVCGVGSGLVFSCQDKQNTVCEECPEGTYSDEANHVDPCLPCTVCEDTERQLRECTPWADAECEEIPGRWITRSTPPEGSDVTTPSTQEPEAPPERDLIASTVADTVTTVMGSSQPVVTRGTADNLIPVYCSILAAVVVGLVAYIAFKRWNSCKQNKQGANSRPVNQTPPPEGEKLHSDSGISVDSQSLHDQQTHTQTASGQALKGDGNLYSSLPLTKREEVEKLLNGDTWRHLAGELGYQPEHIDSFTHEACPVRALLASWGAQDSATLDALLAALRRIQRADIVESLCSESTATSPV

[3] = molecular target: T2, rat p75NTR expressed on cells (rat, UniProt P07174 30-425); assay: cell-cell binding, flow cytometry
T2 construct: whole, on cells; also called rat p75NTR-GFP; rodent p75NTR
T2 sequence (looked up): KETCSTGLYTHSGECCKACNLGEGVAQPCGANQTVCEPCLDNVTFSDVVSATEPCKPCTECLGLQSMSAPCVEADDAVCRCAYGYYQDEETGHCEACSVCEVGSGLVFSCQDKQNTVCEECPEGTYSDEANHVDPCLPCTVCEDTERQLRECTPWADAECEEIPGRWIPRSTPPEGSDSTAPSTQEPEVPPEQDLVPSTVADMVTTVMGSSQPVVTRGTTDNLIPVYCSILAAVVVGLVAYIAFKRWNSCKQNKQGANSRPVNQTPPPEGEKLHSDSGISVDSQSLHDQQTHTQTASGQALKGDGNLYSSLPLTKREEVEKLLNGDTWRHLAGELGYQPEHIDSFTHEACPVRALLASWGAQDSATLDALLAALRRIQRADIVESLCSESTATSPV

[4] = molecular target: human p75 neurotrophin receptor, full length, expressed on HEK 293 cells (Homo sapiens) (UniProt P08138); assay: cell-cell binding, flow cytometry
[5] = molecular target: human p75 neurotrophin receptor, full length, expressed on HEK 293 cells (Homo sapiens) (UniProt P08138); assay: cell-cell screen, flow cytometry
mouse p75NTR [6] = molecular target: T1, mouse p75NTR; assay: summary of the cell-cell binding results
[7] = molecular target: human p75 neurotrophin receptor, full length, expressed on HEK 293 cells (Homo sapiens) (UniProt P08138); assay: summary of the cell-cell binding results
[8] = molecular target: human B7-1 (CD80), full length, expressed on HEK 293 cells (Homo sapiens) (UniProt P33681); assay: cell-cell screen, flow cytometry
human B7-1 N82E on cells = molecular target: T3, human B7-1 N82E on cells (Homo sapiens, UniProt P33681 35-280); assay: cell-cell binding, flow cytometry
T3 construct: C-terminally fused to mCherry; also called ASN82 GLU
T3 chain: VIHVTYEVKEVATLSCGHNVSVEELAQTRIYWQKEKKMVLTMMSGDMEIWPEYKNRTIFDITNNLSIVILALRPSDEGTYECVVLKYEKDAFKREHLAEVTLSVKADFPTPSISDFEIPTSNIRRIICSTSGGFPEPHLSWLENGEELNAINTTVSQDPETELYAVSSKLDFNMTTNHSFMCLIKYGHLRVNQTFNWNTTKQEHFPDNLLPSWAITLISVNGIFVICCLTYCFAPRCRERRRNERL

B7-1-hIgG1-biotin = molecular target: T4, B7-1-hIgG1-biotin (human, UniProt P33681 35-233, biotin on the AVI tag (BirA)); assay: Fc fusion titrated on streptavidin beads coated with B7-1-hIgG1-biotin, flow cytometry
T4 construct: Loaded on streptavidin beads; the paragraph gives residues only; also called B7-1-Fc-biotin; hB7-1 (residues 35-233) hIgG1-His10-AVI; not shown: C-terminal 10xHis and AVI tagged hIgG1 Fc domain
T4 chain: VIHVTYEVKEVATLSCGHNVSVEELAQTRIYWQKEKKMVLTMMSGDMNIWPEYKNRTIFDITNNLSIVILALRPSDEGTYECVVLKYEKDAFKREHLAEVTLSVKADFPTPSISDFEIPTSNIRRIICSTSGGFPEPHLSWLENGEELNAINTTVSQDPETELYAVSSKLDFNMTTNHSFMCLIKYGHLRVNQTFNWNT

Molecule: B7-1-Fc (recombinant human B7-1 ectodomain Fc fusion, made in house) (from UniProt P33681 35-233)
- binding [1]: binds

B1: human B7-1 (CD80), full length, expressed on HEK 293 cells (ligand)
chain: T3 chain with E48N
notes: also called hB7-1; B7-1-mCherry
- binding (mouse p75NTR [2]): binds
- binding [3]: binds
- binding [4]: binds
- binding [5]: binds
- binding (mouse p75NTR [6]): binds
- binding [7]: binds

B2: human p75 neurotrophin receptor, full length, expressed on HEK 293 cells (receptor)
chain: KEACPTGLYTHSGECCKACNLGEGVAQPCGANQTVCEPCLDSVTFSDVVSATEPCKPCTECVGLQSMSAPCVEADDAVCRCAYGYYQDETTGRCEACRVCEAGSGLVFSCQDKQNTVCEECPDGTYSDEANHVDPCLPCTVCEDTERQLRECTRWADAECEEIPGRWITRSTPPEGSDSTAPSTQEPEAPPEQDLIASTVAGVVTTVMGSSQPVVTRGTTDNLIPVYCSILAAVVVGLVAYIAFKRWNSCKQNKQGANSRPVNQTPPPEGEKLHSDSGISVDSQSLHDQQPHTQTASGQALKGDGGLYSSLPPAKREEVEKLLNGSAGDTWRHLAGELGYQPEHIDSFTHEACPVRALLASWATQDSATLDALLAALRRIQRADLVESLCSESTATSPV
notes: Full-length human p75 with a cytosolic fluorescent tag (GFP); also called p75NTR; NGFR
- binding [8]: binds

B3: human p75NTR F136H on cells (receptor)
chain: B2 chain with F108H
notes: Fluorescent-tagged point mutant
- binding (human B7-1 N82E on cells): binds

B4: human p75NTR F136K on cells (receptor)
chain: B2 chain with F108K
notes: as for B3
- binding (human B7-1 N82E on cells): binds

B5: p75NTR-mIgG2a (Fc fusion)
chain: KEACPTGLYTHSGECCKACNLGEGVAQPCGANQTVCEPCLDSVTFSDVVSATEPCKPCTECVGLQSMSAPCVEADDAVCRCAYGYYQDETTGRCEACRVCEAGSGLVFSCQDKQNTVCEECPDGTYSDEANHVDPCLPCTVCEDTERQLRECTRWADAECEEIPGRWITRSTPPEGSDSTAPSTQEPEAPPEQDLIASTVAGVVTTVMGSSQPVVTRGTTDN
notes: Full-length ectodomain; also called p75-mIgG2A; recombinant p75 mIgG2a; not shown: C-terminal mIgG2a-His10 Fc domain
- binding (B7-1-hIgG1-biotin): binds
